Values from PubChem BioAssay AID1259424 (University of Nebraska Medical Center, 2018).
Test: 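Find knockdowns that reproduce the expression shifts seen after KSR1 loss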 (primary screen). Cell system: human HCT116 colon cancer cells. Reagent: siRNA pool against human genes, 50 nM. Detection: 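Six signature mRNAs by branched-DNA multiplex assay, scaled to two housekeeping genes and non-targeting median, log2; matched to mean KSR1 knockdown profile by Pearson correlation and euclidean distance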. Direction: mean correlation with KSR1 profile and KSR1 correlation: higher = expression change more like KSR1 knockdown; mean distance from KSR1 profile: higher = expression change less like KSR1 knockdown.
Here is an unselected part of about 14,000 reagents tested. 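Higher correlation or smaller distance means closer resemblance to KSR1 loss; control wells, including KSR1 knockdowns, recur on many plates.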 The record does not give: the time to read-out.

Target gene | PubChem SID | mean correlation with KSR1 profile | mean distance from KSR1 profile | KSR1 correlation, replicate 1 | KSR1 correlation, replicate 2 | KSR1 correlation, replicate 3
TAL2 (GeneID 6887) | SID363996327 | 0.541 | 1.87 | 0.46 | 0.462 | 0.546
LGALS7 (GeneID 3963) | SID363993504 | -0.604 | 2.1 | -0.721 | -0.703 | -0.427
MPV17 (GeneID 4358) | SID363993615 | 0.295 | 2.01 | -0.0344 | 0.31 | 0.197
SKA3 (GeneID 221150) | SID364004644 | 0.0678 | 2.74 | 0.176 | -0.214 | -0.0683
RTBDN (GeneID 83546) | SID364003614 | 0.336 | 2.86 | 0.259 | 0.237 | 0.269
FOXP2 (GeneID 93986) | SID363998902 | 0.531 | 1.27 | 0.239 | 0.688 | 0.484
PEX19 (GeneID 5824) | SID363994013 | 0.569 | 1.69 | 0.575 | 0.539 | 0.506
RASL11B (GeneID 65997) | SID364002665 | 0.889 | 0.643 | 0.939 | 0.543 | 0.564
CNOT9 (GeneID 9125) | SID363996350 | 0.063 | 3.49 | 0.0297 | 0.0721 | 0.288
RRP1B (GeneID 23076) | SID364005451 | -0.0631 | 1.13 | -0.0828 | -0.0073 | -0.126
CDC50A (GeneID 55754) | SID364000911 | -0.0635 | 1.3 | -0.289 | -0.56 | 0.38
KCNK10 (GeneID 54207) | SID364002054 | -0.252 | 3.09 | -0.205 | -0.39 | -0.0298
MARK2 (GeneID 2011) | SID363995896 | -0.0674 | 2.34 | 0.0639 | -0.105 | -0.204
NAPB (GeneID 63908) | SID364002312 | 0.0482 | 2.07 | -0.105 | 0.189 | 0.159
UBQLN2 (GeneID 29978) | SID363998522 | -0.279 | 2.18 | -0.661 | -0.225 | -0.275
OTUD7B (GeneID 56957) | SID364001558 | -0.342 | 2.86 | -0.425 | -0.365 | -0.073
HBG2 (GeneID 3048) | SID363991520 | 0.263 | 1.52 | 0.347 | 0.024 | 0.157
RYR1 (GeneID 6261) | SID363991863 | 0.0335 | 3.13 | 0.127 | -0.248 | 0.133
RAD23A (GeneID 5886) | SID363995991 | 0.281 | 2.44 | 0.253 | 0.231 | 0.397
MPG (GeneID 4350) | SID363993612 | -0.249 | 3.44 | -0.14 | -0.317 | -0.445

2 successive reagents already listed, quoted:
Target gene | PubChem SID | mean correlation with KSR1 profile | mean distance from KSR1 profile | KSR1 correlation, replicate 1 | KSR1 correlation, replicate 2 | KSR1 correlation, replicate 3
RASL11B (GeneID 65997) | SID364002665 | 0.889 | 0.643 | 0.939 | 0.543 | 0.564
CNOT9 (GeneID 9125) | SID363996350 | 0.063 | 3.49 | 0.0297 | 0.0721 | 0.288
